A short description of one test: PubChem AID 1586. The settings on record: yeast two-hybrid polyglutamine protein interaction, reporter readout; measured here: averaged growth delta OD.
Test [1] in a line: enhancers of SMN2 over SMN1 splicing, cell-based, SMN2/SMN1 luciferase reporters (AID 1598). The settings on record: SMN2 vs SMN1 luciferase splicing reporter cells, at 10 µM; SMN1 luciferase ratio: measured here: SMN1 luciferase reporter average; SMN2 luciferase ratio: measured here: SMN2 luciferase reporter average, stronger effect = higher value.
Test [2] is described as follows: protection against mutant huntingtin cytotoxicity, PC12 cells, LDH release (AID 1610). Particulars: PC12 mutant huntingtin toxicity, final LDH at 4 uM, stronger effect = lower value. Background: Release of lactate dehydrogenase indicates damage to the cell membrane.

The source of these data is PubChem BioAssay.

Some of the results follow. These are further read-outs of the screen, such as a control signal, another cell line or another target. No call is given for them. For some assays here: Most of these compounds were active or inconclusive in the main read-out, so they are no random draw.

`CC12CCC3C(=CCc4cc(O)ccc43)C1CCC2=O` (centres undefined) gave a signal change (36 h minus 0 h) in “PubChem AID 1586” of 0.0898. Besides, in test [1], the SMN1 luciferase ratio turned out to be 0.92 and the SMN2 luciferase ratio amounted to 0.98. Further, the normalised LDH release in test [2] came out at 0.896.
The matching figures for `COc1ccc(C2C(=O)c3ccccc3C2=O)cc1`: 0.164, 1.68, 1.94 and 0.691.
In the same order, the values of `O=C(O)c1cccnc1` are 0.057, 1.01, 0.92 and 0.941.
Regarding `O=C(O)c1cc(=O)c2ccccc2[nH]1`, the signal change (36 h minus 0 h) in “PubChem AID 1586” came to 0.0668. In test [1], the SMN1 luciferase ratio stood at 0.86 and the SMN2 luciferase ratio stood at 0.85. The compound also had a normalised LDH release in test [2] of 1.31.
In the same order, the values of `CO[C@H]1/C=C/O[C@@]2(C)Oc3c(C)c(O)c4c(O)c(c(C=NN5CCN(C)CC5)c(O)c4c3C2=O)NC(=O)/C(C)=C\C=C\C(C)[C@H](O)[C@@H](C)[C@@H](O)[C@@H](C)[C@@H](OC(C)=O)[C@@H]1C` (some centres undefined) are 0.187, 0.91, 0.85 and 0.638.
In the same order, the values of `CN1CCC(OC(c2ccccc2)c2ccccc2)CC1` are 0.108, 0.91, 0.89 and 1.
The matching figures for `C/C=C/CC(C)C(O)C1C(=O)NC(CC)C(=O)N(C)CC(=O)N(C)C(CC(C)C)C(=O)NC(C(C)C)C(=O)N(C)C(CC(C)C)C(=O)NC(C)C(=O)NC(C)C(=O)N(C)C(CC(C)C)C(=O)N(C)C(CC(C)C)C(=O)N(C)C(C(C)C)C(=O)N1C` (centres undefined): 0.313, 0.85, 0.82 and 0.84.
For the compound `Oc1c(Br)cc(Br)c2cccnc12`, the signal change (36 h minus 0 h) in the test “PubChem AID 1586” is -0.0144. For the same compound, in test [1], the SMN1 luciferase ratio was found to be 0.85 and the SMN2 luciferase ratio is 0.97. For the same compound, the normalised LDH release in test [2] is 0.607.
In the same order, the values of `CCCCOc1ccc(C(=O)CCN2CCCCC2)cc1` are 0.189, 0.93, 0.86 and 1.24.
The matching figures for `NCCCS(=O)(=O)O`: 0.114, 0.93, 0.87 and 0.979.
The matching figures for `CCN(CC)CCNC(=O)c1cc(Cl)c(N)cc1OC`: 0.179, 0.85, 0.94 and 0.799.
